This passage reports binding results from patent publication US20050191294A1, “Compositions and methods of use of targeting peptides for diagnosis and therapy” (Board of Regents, The University of Texas System, priority 2003, published 2005).

These are yes or no findings as the source states them, for the method shown. Some results given as binding are weak or reduced against the parent protein; the word gives no strength. For some assays here: Tags and fused reporters may be left off the sequences shown.

Assay [1] addresses T1, recombinant mouse IL-11Rα (R&D Systems) (mouse) (UniProt Q64385).
T1 sequence (looked up): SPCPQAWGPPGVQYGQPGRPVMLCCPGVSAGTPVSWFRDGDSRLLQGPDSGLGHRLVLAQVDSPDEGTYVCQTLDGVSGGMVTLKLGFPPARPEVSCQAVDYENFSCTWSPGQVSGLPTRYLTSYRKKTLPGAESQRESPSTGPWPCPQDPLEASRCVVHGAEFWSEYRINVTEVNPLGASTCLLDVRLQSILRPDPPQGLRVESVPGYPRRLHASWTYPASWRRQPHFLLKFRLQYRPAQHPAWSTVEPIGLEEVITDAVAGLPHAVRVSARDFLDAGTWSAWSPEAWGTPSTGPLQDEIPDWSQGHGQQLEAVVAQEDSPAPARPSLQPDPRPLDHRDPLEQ
The experiment in a line: phage binding to immobilized recombinant IL-11Rα.

Assay [2] concerns the target T2, prohibitin from mouse white fat membrane extract (35 kDa protein) (mouse) (UniProt P67778).
T2 sequence (looked up): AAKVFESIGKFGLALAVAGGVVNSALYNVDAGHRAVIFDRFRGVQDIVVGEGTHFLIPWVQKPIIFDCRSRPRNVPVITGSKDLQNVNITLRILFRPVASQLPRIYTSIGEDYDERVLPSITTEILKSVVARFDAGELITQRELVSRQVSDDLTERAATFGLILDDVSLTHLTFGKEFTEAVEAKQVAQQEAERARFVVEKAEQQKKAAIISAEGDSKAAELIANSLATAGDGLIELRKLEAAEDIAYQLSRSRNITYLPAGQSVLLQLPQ
The experiment in a line: affinity chromatography of biotinylated mouse white fat membrane extract, blot for biotin.

B1: … (SEQ ID NO:1)-displaying phage (peptide, not shown: large carriers)
peptide: CGRRAGGSC
As to B1, the binding entry in assay [1] is reported as “binds”.

B2: recombinant fusion protein … (SEQ ID NO:4)-glutathione transferase (gst) (peptide, not shown: a dimerising Fc or GST)
chain: CKGGRAKDC
Take B2: the binding result in assay [2] is listed as “binds”.
